These results are taken from publication doi:10.1101/2020.01.29.925610.

No constants are given. Whether binding was seen depends on the method and setting. Binding can be weak; no strength is given. For part of these data: Where a sequence is shown, tags or fusion partners need not be part of it.

One test deals with T1, GST-IFT38 (UniProt Q96AJ1).
T1 sequence: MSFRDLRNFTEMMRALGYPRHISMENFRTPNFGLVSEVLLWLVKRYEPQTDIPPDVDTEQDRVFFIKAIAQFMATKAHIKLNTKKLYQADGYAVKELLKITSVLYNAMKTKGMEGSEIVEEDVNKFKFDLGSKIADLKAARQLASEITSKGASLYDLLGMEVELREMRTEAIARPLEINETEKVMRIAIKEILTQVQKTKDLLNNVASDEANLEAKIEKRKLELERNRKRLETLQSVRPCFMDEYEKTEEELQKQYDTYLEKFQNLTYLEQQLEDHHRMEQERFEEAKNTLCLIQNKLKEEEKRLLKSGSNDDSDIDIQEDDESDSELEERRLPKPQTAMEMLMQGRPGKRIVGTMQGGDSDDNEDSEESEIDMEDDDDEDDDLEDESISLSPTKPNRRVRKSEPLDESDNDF
The test can be described thus: pull-down.

Test [1] concerns the target T2, GST-IFT38^Ctail (aa 329-413) (UniProt Q96AJ1).
T2 sequence: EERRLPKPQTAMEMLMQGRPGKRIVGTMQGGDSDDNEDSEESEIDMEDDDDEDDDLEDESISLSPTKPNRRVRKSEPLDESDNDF
The test can be described thus: pull-down.

For the next test, the target named is BBSome (bovine). The test can be described thus: cryo-EM structure.
Test [2] addresses BBS1 (subunit of the bovine BBSome) (bovine). The test can be described thus: cryo-EM structure.
The target in test [3] is BBS7 (subunit of the bovine BBSome) (bovine). The test can be described thus: cryo-EM structure.

With BBSome (bovine) (complex), the binding result (with GST-IFT38; in test [1]) was “binds” throughout.

B1: ARL6^GTP (full-length ARL6 incubated with GTP) (enzyme, UniProt Q0IIM2 1-186)
chain: MGLLDRLSGLLGLKKKEVHVLCLGLDNSGKTTIINKLKPSNAQSQDIVPTIGFSIQKFKSSSLSFTVFDMSGQGRYRNLWEHYYKEGQAIIFVIDSSDKLRMVVAKEELRTLLNHPDIKHRRIPILFFANKMDLRDALTSVKVSQLLCLEDIKDKPWHICASDAIKGEGLQEGVDWLQDQIQSVKT
For the molecule B1, the binding entry (with BBSome (bovine); in test [2]; in test [3]) was “binds” throughout.

B2: BBS4 (subunit of the bovine BBSome) (protein, UniProt Q1JQ97 1-519)
chain: MAEEKLSARTQLPVSAESQKPVLKKAPEFPILEKQNWLIHLYYIQKDYEACKAVIKEQLQETHGLCEYAIYVQALIFRLEGNIQESLRLFQMCAFLSPQCADNLKQVARSLFLLGKHKAAIEVYNEAAKLNQKDWEICHNLGVCYIYLKQFDKAQDQLHNALHLNRHDLTYIMLGKIFLLKGDLDKAIEIYKKAVEFSPENTELLTTLGLLYLQLGIYQKAFEHLGNTLTYDPTNYKAILAAGSMMQTHGDFDVALTKYKVVACAVIESPPLWNNIGMCFFGKKKYVAAISCLKRANYLAPLDWKILYNLGLVHLTMQQYASAFHFLSAAINFQPKMGELYMLLAVALTNLEDSENAKRAYEEAVRLDKCNPLVNLNYAVLLYNQGEKRDALAQYQEMEKKVNLLKYSSSLEFDPEMVEVAQKLGAALQVGEALVWTKPVKDPKSKHQTASTSKAAGFQQPLGSNQALGQAMSSAATCRKLSSGAGGTSQLTKPPSLPLEPEPTVEAQPTEASAQTREK
B2: in test [2], the binding entry is given as “binds”.
